{"source": "PubChem BioAssay AID1508588 (Peter MacCallum Cancer Centre, 2020)", "test": "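Which gene losses make BRAF-mutant melanoma cells more responsive to vemurafenib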 (primary screen)", "cells": "human WM266.4 melanoma cells (BRAF V600 mutant)", "reagents": "siRNA pool against human genes, 40 nM", "time to read-out": "96 h from transfection to read-out", "treatment": "vemurafenib 300 nM (about IC25), added 48 h after transfection, for 48 h; comparison arm got DMSO vehicle only", "measured": "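Ratios to non-targeting siRNA for cell gain, counted as DAPI nuclei after minus before drug and averaged over two replicates, and for absorbance-read medium lactate per cell; both binned into fold-change classes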", "reading the numbers": "cell gain with vemurafenib: higher = more cell gain than with non-targeting siRNA; lactate per cell with vemurafenib: higher = more lactate made per cell", "hit rule": "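Enhancement is called by pairing each knock-down's vehicle-arm and drug-arm fold-change classes for viability or glycolysis; which class combinations qualify is not given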", "meaning of the calls": "active = enhances vemurafenib effect; inactive = no enhancement seen", "note": "Here is an unselected part of about 18,000 reagents. Over the whole deposit, 790 (4.4%) were called active. 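Calls rest on a combination of fold-change classes in drug and vehicle arms, not all shown here.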 Reagent sequences are not shown."}
The first 3 entries, to show the layout:
{"Gene":"SLC38A12","cell gain with vemurafenib":0.72,"lactate per cell with vemurafenib":0.9,"call":"inactive"}
{"Gene":"CRABP1","cell gain with vemurafenib":0.44,"lactate per cell with vemurafenib":0.68,"call":"inactive"}
{"Gene":"SARAF","cell gain with vemurafenib":0.13,"lactate per cell with vemurafenib":0.4,"call":"inactive"}

Results, from the start:
{"Gene":"SLC38A12","cell gain with vemurafenib":0.72,"lactate per cell with vemurafenib":0.9,"call":"inactive"}
{"Gene":"CRABP1","cell gain with vemurafenib":0.44,"lactate per cell with vemurafenib":0.68,"call":"inactive"}
{"Gene":"SARAF","cell gain with vemurafenib":0.13,"lactate per cell with vemurafenib":0.4,"call":"inactive"}
{"Gene":"ALPK1","cell gain with vemurafenib":0.07,"lactate per cell with vemurafenib":1.16,"call":"inactive"}
{"Gene":"INSIG2","cell gain with vemurafenib":0.83,"lactate per cell with vemurafenib":0.64,"call":"inactive"}
{"Gene":"DYNC2H1","cell gain with vemurafenib":0.34,"lactate per cell with vemurafenib":1.13,"call":"inactive"}
{"Gene":"TERF2IP","cell gain with vemurafenib":0.01,"lactate per cell with vemurafenib":1.99,"call":"inactive"}
{"Gene":"EYA4","cell gain with vemurafenib":0.64,"lactate per cell with vemurafenib":0.89,"call":"inactive"}
{"Gene":"RO60","cell gain with vemurafenib":0.82,"lactate per cell with vemurafenib":0.41,"call":"inactive"}
{"Gene":"AMIGO3","cell gain with vemurafenib":0.74,"lactate per cell with vemurafenib":1.29,"call":"inactive"}
{"Gene":"RPL19","cell gain with vemurafenib":-0.09,"lactate per cell with vemurafenib":1.36,"call":"inactive"}
{"Gene":"MAOB","cell gain with vemurafenib":0.3,"lactate per cell with vemurafenib":1.8,"call":"inactive"}
{"Gene":"DPP4","cell gain with vemurafenib":0.61,"lactate per cell with vemurafenib":1.07,"call":"inactive"}
{"Gene":"ATP5MF","cell gain with vemurafenib":0.66,"lactate per cell with vemurafenib":0.67,"call":"inactive"}
{"Gene":"SLC36A3","cell gain with vemurafenib":0.58,"lactate per cell with vemurafenib":1.51,"call":"inactive"}
{"Gene":"PLEKHA4","cell gain with vemurafenib":0.38,"lactate per cell with vemurafenib":1.19,"call":"inactive"}
{"Gene":"PLA2G5","cell gain with vemurafenib":1.15,"lactate per cell with vemurafenib":0.32,"call":"inactive"}
{"Gene":"NUAK1","cell gain with vemurafenib":0.73,"lactate per cell with vemurafenib":1.4,"call":"inactive"}
{"Gene":"PGLYRP3","cell gain with vemurafenib":1.28,"lactate per cell with vemurafenib":0.63,"call":"inactive"}
{"Gene":"SLC30A6","cell gain with vemurafenib":0.88,"lactate per cell with vemurafenib":0.75,"call":"inactive"}
{"Gene":"BIK","cell gain with vemurafenib":0.59,"lactate per cell with vemurafenib":0.6,"call":"inactive"}
{"Gene":"PSG9","cell gain with vemurafenib":1.08,"lactate per cell with vemurafenib":0.3,"call":"inactive"}
{"Gene":"STARD7","cell gain with vemurafenib":0.58,"lactate per cell with vemurafenib":1.19,"call":"inactive"}
{"Gene":"ATP5ME","cell gain with vemurafenib":0.65,"lactate per cell with vemurafenib":1.48,"call":"inactive"}
{"Gene":"ADAM33","cell gain with vemurafenib":0.3,"lactate per cell with vemurafenib":1.09,"call":"inactive"}
{"Gene":"CRADD","cell gain with vemurafenib":0.2,"lactate per cell with vemurafenib":0.85,"call":"inactive"}
{"Gene":"TATDN3","cell gain with vemurafenib":0.63,"lactate per cell with vemurafenib":0.74,"call":"inactive"}
{"Gene":"ZKSCAN7","cell gain with vemurafenib":0.51,"lactate per cell with vemurafenib":0.7,"call":"inactive"}
{"Gene":"POGZ","cell gain with vemurafenib":0.81,"lactate per cell with vemurafenib":0.85,"call":"inactive"}
{"Gene":"TRIOBP","cell gain with vemurafenib":0.9,"lactate per cell with vemurafenib":0.86,"call":"inactive"}
{"Gene":"TK1","cell gain with vemurafenib":0.68,"lactate per cell with vemurafenib":0.5,"call":"inactive"}
{"Gene":"PROCR","cell gain with vemurafenib":0.61,"lactate per cell with vemurafenib":0.5,"call":"inactive"}
{"Gene":"INSL6","cell gain with vemurafenib":0.43,"lactate per cell with vemurafenib":1.07,"call":"inactive"}
{"Gene":"METTL1","cell gain with vemurafenib":0.58,"lactate per cell with vemurafenib":0.9,"call":"inactive"}
{"Gene":"SUSD4","cell gain with vemurafenib":0.28,"lactate per cell with vemurafenib":0.28,"call":"inactive"}
{"Gene":"KCTD3","cell gain with vemurafenib":0.59,"lactate per cell with vemurafenib":1.66,"call":"inactive"}
{"Gene":"RWDD2B","cell gain with vemurafenib":1.05,"lactate per cell with vemurafenib":0.72,"call":"inactive"}
{"Gene":"TMEM68","cell gain with vemurafenib":0.85,"lactate per cell with vemurafenib":0.44,"call":"inactive"}
{"Gene":"PRMT5","cell gain with vemurafenib":0.88,"lactate per cell with vemurafenib":1.09,"call":"inactive"}
{"Gene":"MAN2A1","cell gain with vemurafenib":0.28,"lactate per cell with vemurafenib":1.74,"call":"inactive"}
{"Gene":"HTR2B","cell gain with vemurafenib":0.5,"lactate per cell with vemurafenib":1.04,"call":"inactive"}
{"Gene":"KDM5B","cell gain with vemurafenib":0.99,"lactate per cell with vemurafenib":0.92,"call":"inactive"}
{"Gene":"OR4A15","cell gain with vemurafenib":0.87,"lactate per cell with vemurafenib":1.04,"call":"inactive"}
{"Gene":"NUDC","cell gain with vemurafenib":0.84,"lactate per cell with vemurafenib":1.13,"call":"inactive"}
{"Gene":"TSC1","cell gain with vemurafenib":1.03,"lactate per cell with vemurafenib":0.61,"call":"inactive"}
{"Gene":"FAF2","cell gain with vemurafenib":0.93,"lactate per cell with vemurafenib":1.04,"call":"inactive"}
{"Gene":"IFIT1B","cell gain with vemurafenib":0.59,"lactate per cell with vemurafenib":0.96,"call":"inactive"}
{"Gene":"MAP2K6","cell gain with vemurafenib":1.15,"lactate per cell with vemurafenib":0.76,"call":"inactive"}
{"Gene":"RIC8B","cell gain with vemurafenib":0.45,"lactate per cell with vemurafenib":1.16,"call":"inactive"}
{"Gene":"PPP1R21","cell gain with vemurafenib":0.89,"lactate per cell with vemurafenib":0.73,"call":"inactive"}
{"Gene":"VGLL3","cell gain with vemurafenib":0.51,"lactate per cell with vemurafenib":0.94,"call":"inactive"}
{"Gene":"TLN2","cell gain with vemurafenib":0.53,"lactate per cell with vemurafenib":0.58,"call":"inactive"}
